This is one part of the list.
The targets below were run with CC(=O)c1cnc2ccc(-c3cc(Cl)c(O)c(Cl)c3)nc2c1N[C@H]1CC[C@H](CN(C)C)CC1 (assay: log2 fold change, soluble protein after heating vs DMSO (PISA); higher = thermal stabilisation; K562 cells, 10 uM, 30 min; active = over 0.2 and 3.5 SD of the protein, either way, in both replicates (recomputed)).
In short: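 Soluble protein was quantified by TMTpro 16plex LC-MS/MS after channel sums were equalised. It was obtained as the supernatant after 21,000xg for 90 min from pooled aliquots of K562 cells (2×10^6 cells/mL, 10 μM compound, 30 min) heated for 3 min across 48°C-58°C and extracted in PBS with 0.5% NP-40 at 4°C. Thermal stability values are relative to control samples and come from duplicates. They are given as log2 fold changes.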

Protein sequences, listed by entry. Tags and fused reporters are not part of them. Lines headed by an entry give the natural chain unless they say otherwise; changes in a name come on top.
UniProt P58004: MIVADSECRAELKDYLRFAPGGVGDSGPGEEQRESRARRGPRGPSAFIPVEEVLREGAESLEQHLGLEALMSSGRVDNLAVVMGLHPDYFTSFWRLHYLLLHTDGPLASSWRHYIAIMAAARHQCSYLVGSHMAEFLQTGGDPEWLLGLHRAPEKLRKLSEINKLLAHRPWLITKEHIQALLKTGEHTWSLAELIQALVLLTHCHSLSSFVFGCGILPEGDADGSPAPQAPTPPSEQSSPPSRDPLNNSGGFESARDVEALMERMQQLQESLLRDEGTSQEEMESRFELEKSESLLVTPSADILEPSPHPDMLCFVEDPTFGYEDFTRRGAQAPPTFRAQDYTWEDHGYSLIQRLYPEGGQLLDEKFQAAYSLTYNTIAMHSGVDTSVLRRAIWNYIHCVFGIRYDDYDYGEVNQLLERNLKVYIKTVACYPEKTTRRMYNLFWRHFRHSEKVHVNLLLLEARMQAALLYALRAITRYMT
UniProt O95470: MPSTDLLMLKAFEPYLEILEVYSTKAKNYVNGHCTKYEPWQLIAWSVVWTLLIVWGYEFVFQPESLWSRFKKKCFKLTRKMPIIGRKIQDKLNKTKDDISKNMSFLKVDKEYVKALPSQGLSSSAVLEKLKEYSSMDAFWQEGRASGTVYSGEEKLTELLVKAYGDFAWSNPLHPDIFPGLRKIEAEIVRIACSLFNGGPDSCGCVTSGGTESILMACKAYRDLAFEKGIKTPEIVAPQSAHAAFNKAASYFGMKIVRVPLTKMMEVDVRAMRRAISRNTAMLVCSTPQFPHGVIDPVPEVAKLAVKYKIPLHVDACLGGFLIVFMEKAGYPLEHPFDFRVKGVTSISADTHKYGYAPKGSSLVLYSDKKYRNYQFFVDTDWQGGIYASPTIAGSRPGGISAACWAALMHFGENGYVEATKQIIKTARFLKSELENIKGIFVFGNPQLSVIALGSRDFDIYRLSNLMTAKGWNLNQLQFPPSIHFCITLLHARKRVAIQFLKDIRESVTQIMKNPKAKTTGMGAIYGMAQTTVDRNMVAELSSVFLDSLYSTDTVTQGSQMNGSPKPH
UniProt O43765: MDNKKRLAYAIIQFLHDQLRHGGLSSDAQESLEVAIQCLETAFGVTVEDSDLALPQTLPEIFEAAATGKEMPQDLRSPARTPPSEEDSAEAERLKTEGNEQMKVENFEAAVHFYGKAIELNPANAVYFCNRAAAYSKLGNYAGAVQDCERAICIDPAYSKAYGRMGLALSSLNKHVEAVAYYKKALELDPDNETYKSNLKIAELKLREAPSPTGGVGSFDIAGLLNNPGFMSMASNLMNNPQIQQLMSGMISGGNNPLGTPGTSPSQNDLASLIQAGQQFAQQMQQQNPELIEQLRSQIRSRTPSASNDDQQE
UniProt Q9HD40: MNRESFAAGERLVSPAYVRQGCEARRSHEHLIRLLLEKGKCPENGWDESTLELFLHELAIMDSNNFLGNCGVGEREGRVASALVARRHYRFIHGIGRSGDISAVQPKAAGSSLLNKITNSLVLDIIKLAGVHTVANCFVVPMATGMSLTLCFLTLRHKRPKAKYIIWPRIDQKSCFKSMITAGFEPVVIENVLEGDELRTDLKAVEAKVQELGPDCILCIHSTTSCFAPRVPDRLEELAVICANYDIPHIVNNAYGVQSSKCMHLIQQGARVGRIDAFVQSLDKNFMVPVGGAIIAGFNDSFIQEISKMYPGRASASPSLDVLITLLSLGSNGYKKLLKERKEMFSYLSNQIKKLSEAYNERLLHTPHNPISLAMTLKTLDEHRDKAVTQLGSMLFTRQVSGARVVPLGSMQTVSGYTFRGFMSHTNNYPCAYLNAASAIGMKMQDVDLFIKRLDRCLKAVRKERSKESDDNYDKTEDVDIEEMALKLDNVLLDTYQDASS
UniProt Q96ST3: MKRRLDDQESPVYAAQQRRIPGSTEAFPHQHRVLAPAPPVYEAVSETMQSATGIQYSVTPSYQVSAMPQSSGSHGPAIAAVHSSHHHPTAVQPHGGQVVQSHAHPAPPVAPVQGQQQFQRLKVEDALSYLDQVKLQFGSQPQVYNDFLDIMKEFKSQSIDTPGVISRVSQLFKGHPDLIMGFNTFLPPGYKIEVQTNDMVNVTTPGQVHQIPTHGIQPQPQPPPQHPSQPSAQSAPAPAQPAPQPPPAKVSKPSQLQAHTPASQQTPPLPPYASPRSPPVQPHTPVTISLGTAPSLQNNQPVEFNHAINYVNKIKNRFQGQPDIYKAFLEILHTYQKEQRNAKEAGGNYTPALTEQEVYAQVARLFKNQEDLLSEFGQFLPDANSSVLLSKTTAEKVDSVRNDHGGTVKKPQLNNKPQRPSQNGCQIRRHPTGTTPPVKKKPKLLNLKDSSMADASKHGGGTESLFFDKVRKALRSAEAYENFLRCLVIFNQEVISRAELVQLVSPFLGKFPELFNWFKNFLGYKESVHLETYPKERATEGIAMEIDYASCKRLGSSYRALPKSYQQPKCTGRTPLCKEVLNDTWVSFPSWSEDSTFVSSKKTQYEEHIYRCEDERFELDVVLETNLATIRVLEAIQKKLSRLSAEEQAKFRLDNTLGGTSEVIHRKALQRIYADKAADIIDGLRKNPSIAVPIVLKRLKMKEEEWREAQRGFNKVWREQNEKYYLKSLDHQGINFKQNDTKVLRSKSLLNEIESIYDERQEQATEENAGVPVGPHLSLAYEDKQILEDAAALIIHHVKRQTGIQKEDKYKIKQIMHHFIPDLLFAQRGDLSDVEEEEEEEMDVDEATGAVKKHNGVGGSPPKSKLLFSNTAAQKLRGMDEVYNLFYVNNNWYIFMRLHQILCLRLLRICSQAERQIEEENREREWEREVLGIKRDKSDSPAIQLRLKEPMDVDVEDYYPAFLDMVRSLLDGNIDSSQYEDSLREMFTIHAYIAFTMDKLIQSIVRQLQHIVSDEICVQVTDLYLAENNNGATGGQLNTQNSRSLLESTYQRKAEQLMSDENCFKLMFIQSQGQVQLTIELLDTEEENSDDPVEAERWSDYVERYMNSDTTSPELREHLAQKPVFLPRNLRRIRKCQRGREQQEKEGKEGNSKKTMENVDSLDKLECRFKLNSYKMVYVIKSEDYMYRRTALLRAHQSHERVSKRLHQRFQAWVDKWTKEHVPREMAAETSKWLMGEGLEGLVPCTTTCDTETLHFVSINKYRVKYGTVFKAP
UniProt Q8IZQ5, whole entry, looked up: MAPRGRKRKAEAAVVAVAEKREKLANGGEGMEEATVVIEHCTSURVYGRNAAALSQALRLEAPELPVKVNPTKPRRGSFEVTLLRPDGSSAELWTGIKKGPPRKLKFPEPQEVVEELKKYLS
UniProt P05543: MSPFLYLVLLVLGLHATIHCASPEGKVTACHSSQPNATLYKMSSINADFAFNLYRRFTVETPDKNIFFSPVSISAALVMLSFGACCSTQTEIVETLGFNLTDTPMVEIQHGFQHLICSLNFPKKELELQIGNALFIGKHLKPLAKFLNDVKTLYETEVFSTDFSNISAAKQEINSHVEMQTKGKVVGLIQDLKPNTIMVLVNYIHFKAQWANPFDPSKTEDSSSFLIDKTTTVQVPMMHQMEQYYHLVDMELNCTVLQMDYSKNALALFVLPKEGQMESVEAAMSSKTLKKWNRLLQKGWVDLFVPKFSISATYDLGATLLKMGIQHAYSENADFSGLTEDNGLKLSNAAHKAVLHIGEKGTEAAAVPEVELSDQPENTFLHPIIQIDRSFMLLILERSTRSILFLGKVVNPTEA
UniProt Q13530: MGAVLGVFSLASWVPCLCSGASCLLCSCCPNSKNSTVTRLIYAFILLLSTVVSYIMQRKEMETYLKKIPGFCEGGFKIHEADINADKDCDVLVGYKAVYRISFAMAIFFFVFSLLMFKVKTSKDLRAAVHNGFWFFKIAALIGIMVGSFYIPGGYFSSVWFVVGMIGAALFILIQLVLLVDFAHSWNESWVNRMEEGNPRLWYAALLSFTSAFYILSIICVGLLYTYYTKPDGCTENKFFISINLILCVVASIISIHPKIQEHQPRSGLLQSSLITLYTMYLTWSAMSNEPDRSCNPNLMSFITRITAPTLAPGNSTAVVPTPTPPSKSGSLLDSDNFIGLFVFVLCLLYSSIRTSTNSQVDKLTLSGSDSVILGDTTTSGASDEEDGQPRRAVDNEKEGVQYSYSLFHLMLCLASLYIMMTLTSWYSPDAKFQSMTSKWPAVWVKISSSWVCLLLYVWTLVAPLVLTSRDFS
UniProt Q68CR1: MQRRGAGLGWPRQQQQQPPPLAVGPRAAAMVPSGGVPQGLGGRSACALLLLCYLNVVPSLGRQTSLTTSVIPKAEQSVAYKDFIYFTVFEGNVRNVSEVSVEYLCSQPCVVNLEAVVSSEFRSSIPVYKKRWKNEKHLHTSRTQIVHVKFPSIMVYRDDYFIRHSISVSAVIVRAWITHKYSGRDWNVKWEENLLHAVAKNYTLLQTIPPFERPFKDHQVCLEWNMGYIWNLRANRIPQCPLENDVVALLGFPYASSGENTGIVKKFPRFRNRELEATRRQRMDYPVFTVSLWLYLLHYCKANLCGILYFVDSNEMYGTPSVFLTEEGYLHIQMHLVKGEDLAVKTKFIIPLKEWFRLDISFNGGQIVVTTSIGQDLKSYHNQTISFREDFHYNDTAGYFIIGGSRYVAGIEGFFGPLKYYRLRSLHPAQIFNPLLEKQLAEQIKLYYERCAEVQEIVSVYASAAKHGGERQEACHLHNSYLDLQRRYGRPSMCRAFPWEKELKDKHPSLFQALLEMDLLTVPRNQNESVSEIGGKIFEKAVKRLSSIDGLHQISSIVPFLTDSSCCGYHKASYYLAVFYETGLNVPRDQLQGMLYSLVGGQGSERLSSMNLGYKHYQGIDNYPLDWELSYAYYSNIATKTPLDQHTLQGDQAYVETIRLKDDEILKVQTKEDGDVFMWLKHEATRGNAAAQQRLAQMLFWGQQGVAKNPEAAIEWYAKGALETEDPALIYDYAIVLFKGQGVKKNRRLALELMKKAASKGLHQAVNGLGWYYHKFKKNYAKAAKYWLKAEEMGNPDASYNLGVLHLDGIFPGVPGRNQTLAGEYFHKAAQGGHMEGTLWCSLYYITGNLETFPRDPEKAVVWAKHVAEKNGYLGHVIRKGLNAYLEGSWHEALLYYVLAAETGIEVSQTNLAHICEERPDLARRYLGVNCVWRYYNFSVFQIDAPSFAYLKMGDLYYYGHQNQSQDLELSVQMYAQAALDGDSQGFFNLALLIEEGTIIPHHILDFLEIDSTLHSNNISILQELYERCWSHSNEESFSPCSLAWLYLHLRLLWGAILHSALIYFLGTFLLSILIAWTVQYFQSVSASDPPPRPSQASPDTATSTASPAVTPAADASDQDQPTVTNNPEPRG
UniProt Q8TD22: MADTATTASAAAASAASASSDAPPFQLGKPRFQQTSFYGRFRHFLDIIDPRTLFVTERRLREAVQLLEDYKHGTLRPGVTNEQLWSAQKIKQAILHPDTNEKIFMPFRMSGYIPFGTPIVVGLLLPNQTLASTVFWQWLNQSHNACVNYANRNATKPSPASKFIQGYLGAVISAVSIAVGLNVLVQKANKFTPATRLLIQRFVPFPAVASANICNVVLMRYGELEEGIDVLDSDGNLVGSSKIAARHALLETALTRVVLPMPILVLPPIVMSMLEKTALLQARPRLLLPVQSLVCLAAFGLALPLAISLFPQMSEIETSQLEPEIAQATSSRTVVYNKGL
UniProt Q99719: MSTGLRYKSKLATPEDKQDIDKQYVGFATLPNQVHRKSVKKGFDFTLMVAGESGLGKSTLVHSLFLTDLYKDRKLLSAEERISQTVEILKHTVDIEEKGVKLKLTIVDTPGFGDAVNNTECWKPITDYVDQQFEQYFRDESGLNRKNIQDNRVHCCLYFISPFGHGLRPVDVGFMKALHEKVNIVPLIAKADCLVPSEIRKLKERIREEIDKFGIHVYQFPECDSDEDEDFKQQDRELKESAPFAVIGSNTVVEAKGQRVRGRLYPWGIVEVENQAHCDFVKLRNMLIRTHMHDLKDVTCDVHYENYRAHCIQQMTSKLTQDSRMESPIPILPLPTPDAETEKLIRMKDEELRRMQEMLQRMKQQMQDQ
UniProt Q8IXJ6: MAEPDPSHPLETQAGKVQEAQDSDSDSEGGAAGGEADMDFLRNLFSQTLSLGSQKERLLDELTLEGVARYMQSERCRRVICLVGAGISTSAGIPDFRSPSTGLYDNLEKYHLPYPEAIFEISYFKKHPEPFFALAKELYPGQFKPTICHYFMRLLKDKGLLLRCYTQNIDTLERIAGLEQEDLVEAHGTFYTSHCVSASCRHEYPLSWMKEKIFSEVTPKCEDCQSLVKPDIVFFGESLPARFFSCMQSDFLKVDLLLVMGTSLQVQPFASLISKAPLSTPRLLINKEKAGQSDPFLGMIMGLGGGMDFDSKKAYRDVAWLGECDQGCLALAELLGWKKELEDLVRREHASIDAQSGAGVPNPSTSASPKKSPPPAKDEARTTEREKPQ
UniProt O60613, whole entry, looked up: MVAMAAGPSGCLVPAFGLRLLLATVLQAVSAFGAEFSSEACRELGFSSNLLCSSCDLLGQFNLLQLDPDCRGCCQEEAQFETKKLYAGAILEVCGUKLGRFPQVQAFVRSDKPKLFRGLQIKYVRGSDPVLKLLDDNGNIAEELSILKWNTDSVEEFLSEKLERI

Target	log2 fold change
SFXN2 (UniProt Q96NB2)	inactive: -0.012
SESN2 (UniProt P58004)	inactive: 0
SGPL1 (UniProt O95470)	inactive: -0.045
SGTA (UniProt O43765)	inactive: 0.023
SIDT2 isoform 2 (UniProt Q8NBJ9)	inactive: -0.039
SHOC2 (UniProt Q9UQ13)	inactive: -0.046
SEPSECS (UniProt Q9HD40)	inactive: -0.047
SERINC1 (UniProt Q9NRX5)	inactive: 0
SERPINF1 (UniProt P36955)	inactive: 0.052
SIN3A (UniProt Q96ST3)	inactive: 0.024
SEH1L isoform 1 (UniProt Q96EE3)	inactive: -0.056
SETD3 (UniProt Q86TU7)	inactive: -0.018
SEPTIN9 (UniProt Q9UHD8)	inactive: -0.045
SEPTIN4 isoform 4 (UniProt O43236)	inactive: 0.045
SHCBP1 (UniProt Q8NEM2)	inactive: -0.013
SENP6 (UniProt Q9GZR1)	inactive: -0.063

Target	log2 fold change
SELENOH (UniProt Q8IZQ5)	inactive: 0.13
SETMAR (UniProt Q53H47)	inactive: -0.135
SKP1 (UniProt P63208)	inactive: 0.03
SH3GLB2 (UniProt Q9NR46)	inactive: -0.047
SEPHS2 (UniProt Q99611)	inactive: -0.054
SERPINA7 (UniProt P05543)	inactive: 0.227
SERPINB6, A0A087X1N8	inactive: 0.019
SHC1 isoform 6 (UniProt P29353)	inactive: 0.005
SERINC3 (UniProt Q13530)	inactive: -0.027
SEL1L3 (UniProt Q68CR1)	inactive: -0.034
SFXN5 (UniProt Q8TD22)	inactive: -0.013
SH3GL1 (UniProt Q99961)	inactive: -0.059
SEPTIN5 (UniProt Q99719)	inactive: -0.031
SIRT2 (UniProt Q8IXJ6)	inactive: -0.003
SIGMAR1 (UniProt Q99720)	inactive: -0.038
SELENOF (UniProt O60613)	inactive: 0.016

3 entries from above, set out differently.
SIN3A (UniProt Q96ST3)
  log2 fold change: inactive: 0.024
SEH1L isoform 1 (UniProt Q96EE3)
  log2 fold change: inactive: -0.056
SETD3 (UniProt Q86TU7)
  log2 fold change: inactive: -0.018

— the supplement of paper PMC10849652
